These are yes or no findings as the source states them, for the method shown. In cells and extracts the contact can be indirect. Some entries that bind do so weakly or less than the wild type.
Legend:
Assay in all cases: co-IP; yeast crude extract in RNP buffer (0.1 M HEPES pH 7.4, 100 mM NaCl, 0.1% NP-40) on anti-HA agarose beads, 4°C, 90 minutes; HA-Irc20 derivatives precipitated, Cdc48–3xMyc detected by anti-MYC western blot
[1] = target: T1, 3xHA-Irc20 (a.a. 1–386) (S. cerevisiae) (UniProt Q06554)
T1 sequence: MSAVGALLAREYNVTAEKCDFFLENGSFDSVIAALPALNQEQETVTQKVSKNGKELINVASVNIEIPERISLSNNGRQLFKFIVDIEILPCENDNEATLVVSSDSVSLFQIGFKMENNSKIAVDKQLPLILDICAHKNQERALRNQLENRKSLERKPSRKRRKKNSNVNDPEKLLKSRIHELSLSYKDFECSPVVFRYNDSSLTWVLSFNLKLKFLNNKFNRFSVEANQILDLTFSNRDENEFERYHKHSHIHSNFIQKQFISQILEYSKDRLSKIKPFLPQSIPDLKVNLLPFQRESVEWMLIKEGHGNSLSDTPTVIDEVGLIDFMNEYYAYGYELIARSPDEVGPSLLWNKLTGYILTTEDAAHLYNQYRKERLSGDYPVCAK

Amino acid sequences for entries named in this document (tags omitted).
UniProt P25694: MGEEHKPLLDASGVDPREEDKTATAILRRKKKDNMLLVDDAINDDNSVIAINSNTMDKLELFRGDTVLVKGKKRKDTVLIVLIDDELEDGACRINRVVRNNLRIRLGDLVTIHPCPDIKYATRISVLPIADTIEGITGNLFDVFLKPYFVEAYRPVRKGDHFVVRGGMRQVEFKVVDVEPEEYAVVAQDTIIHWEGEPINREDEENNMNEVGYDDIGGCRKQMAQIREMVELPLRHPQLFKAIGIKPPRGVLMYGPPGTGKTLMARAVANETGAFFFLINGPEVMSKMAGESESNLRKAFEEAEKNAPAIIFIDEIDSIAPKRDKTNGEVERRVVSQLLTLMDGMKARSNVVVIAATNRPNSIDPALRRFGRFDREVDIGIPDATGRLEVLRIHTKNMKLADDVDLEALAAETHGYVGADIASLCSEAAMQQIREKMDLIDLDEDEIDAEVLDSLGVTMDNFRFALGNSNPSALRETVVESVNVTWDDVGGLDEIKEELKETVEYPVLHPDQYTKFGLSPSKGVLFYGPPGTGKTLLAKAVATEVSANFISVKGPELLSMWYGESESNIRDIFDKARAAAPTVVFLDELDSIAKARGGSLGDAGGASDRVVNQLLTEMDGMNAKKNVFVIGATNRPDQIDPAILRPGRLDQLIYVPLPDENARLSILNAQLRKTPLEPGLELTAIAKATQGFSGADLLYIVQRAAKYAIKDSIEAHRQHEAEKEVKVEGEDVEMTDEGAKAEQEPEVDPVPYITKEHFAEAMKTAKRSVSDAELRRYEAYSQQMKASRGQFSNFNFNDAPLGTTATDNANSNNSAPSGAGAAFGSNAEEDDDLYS

[2] = target: 3xHA-Irc20-C1239A RING mutant (S. cerevisiae) (UniProt Q06554)
[3] = target: T2, 3xHA-irc20 (Δ1034–1238) (S. cerevisiae) (UniProt Q06554)
T2 sequence: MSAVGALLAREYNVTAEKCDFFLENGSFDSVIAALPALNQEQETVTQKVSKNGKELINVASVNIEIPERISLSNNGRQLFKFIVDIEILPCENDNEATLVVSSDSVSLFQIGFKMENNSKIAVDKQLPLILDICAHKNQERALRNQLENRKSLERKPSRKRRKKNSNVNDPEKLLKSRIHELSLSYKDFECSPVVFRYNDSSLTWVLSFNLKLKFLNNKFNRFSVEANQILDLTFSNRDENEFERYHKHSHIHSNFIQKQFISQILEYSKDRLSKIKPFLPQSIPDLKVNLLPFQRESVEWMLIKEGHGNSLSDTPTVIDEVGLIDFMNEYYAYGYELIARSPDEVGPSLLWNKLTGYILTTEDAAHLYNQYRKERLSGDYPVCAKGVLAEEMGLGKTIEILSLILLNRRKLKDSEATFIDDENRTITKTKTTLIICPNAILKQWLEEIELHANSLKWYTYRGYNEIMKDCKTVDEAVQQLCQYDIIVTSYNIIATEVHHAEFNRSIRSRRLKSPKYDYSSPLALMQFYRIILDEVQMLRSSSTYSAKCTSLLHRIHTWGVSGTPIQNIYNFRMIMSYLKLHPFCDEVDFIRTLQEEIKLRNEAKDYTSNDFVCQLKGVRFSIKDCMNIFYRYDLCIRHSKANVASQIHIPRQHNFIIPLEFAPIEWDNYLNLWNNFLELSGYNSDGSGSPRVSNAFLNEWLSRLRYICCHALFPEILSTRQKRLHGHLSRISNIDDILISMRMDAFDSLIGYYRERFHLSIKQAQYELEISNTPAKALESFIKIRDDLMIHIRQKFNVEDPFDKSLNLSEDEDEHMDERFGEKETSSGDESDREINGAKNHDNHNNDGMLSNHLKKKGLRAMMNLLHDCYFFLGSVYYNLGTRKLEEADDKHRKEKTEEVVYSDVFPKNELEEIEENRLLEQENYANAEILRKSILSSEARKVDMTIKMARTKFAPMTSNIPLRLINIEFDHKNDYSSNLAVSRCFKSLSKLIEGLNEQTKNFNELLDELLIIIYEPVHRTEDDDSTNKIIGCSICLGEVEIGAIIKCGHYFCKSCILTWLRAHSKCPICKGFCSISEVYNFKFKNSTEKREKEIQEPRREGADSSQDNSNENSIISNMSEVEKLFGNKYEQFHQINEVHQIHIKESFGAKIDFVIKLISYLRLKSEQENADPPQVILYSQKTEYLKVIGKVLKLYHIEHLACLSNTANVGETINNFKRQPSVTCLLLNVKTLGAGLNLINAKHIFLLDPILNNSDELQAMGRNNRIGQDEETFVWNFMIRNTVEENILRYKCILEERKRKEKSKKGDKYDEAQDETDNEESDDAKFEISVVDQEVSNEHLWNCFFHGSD

For Cdc48–3xMyc (from UniProt P25694 1-835), the binding [1] was “no binding”, the binding [2] was “binds” and the binding [3] was “binds”.

— paper PMC3796546
